Results taken from PubChem BioAssay (EPA / NIEHS).
This list was built around the results that the source calls inconclusive (neither active nor inactive); the mix of calls is not that of the screen. A potency beside an inconclusive call is a rough fit, not a confirmed value. More than one record can exist for a structure, and the calls need not agree. Activity calls are given as the source filed them. How the source made its calls: active means hit-call score of the fitted dose curve at least 0.9, where 1 is the maximum; inconclusive means response in the unintended direction; inactive means score below 0.9.

test: TOX21_p53_BLA_p4_viability: Viability Assessment in the Tox21 HCT-116 p53 Agonism Beta-lactamase Assay, Phase 4 (AID 2283597);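 further: hits lower the luminescence signal meaning cytotoxicity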
Procedure, shortened: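 Cytotoxicity as reduced cellular ATP (CellTiter-Glo luminescence, 30 min room temperature), measured in the same wells following the CCF4 FRET p53 reading. Human HCT-116 cells received compounds in DMSO (217-fold dilution) for 16 h.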

**Q.** With `CCCCCCCCCCOc1cc2c(=O)c(C(=O)OCC)c[nH]c2cc1OCC` as the compound, how does the AC50 read?
**A.** inconclusive: 23 µM

**Q.** For `O=C(O)c1c2ccccc2cc2ccccc12`, which outcome is on record?
**A.** inactive

**Q.** For `COC(=O)C1=C(C)NC(C)=C(C(=O)O[C@@H]2CCCN(Cc3ccccc3)C2)[C@@H]1c1cccc([N+](=O)[O-])c1`, which outcome is on record?
**A.** inactive

**Q.** For `CCOCCC(=O)OCC`, which AC50 is on record?
**A.** inconclusive: 0.0275 µM

**Q.** With `CC(=O)Oc1ccc(C(=C2CCCCC2)c2ccc(OC(C)=O)cc2)cc1` as the compound, how does the outcome read?
**A.** inactive

**Q.** For `O=C(OCCO)c1ccccc1O`, which outcome is on record?
**A.** inactive

**Q.** For `CC1(C)C(O)C(C)(C)C1O` (centres undefined), which AC50 is on record?
**A.** inconclusive: 46.1 µM

**Q.** For `OCc1cc(C(O)CNCCCCCCOCCCCc2ccccc2)ccc1O` (centres undefined), which outcome is on record?
**A.** inactive

**Q.** And the AC50?
**A.** active: 28.2 µM

**Q.** For `O=C(O)CCC(=O)C(=O)O`, which AC50 is on record?
**A.** inconclusive: 23 µM

**Q.** And the outcome?
**A.** inactive

**Q.** With `CC(C)OC(=O)OCOP(=O)(CO[C@H](C)Cn1cnc2c(N)ncnc21)OCOC(=O)OC(C)C` as the compound, how does the AC50 read?
**A.** inconclusive: 23 µM

**Q.** With `Clc1cc(Cl)c(Cl)nc1Cl` as the compound, how does the AC50 read?
**A.** inconclusive: 46.2 µM

**Q.** For `Nc1cccc2c(=O)[nH][nH]c(=O)c12`, which AC50 is on record?
**A.** inconclusive: 46.3 µM

**Q.** With `CC(=O)Nc1ccc(OCC(O)CNC(C)C)cc1` (centres undefined) as the compound, how does the AC50 read?
**A.** inconclusive: 5.76 µM

**Q.** With `OC[C@H]1O[C@@H](OCCc2ccc(O)cc2)[C@H](O)[C@@H](O)[C@@H]1O` as the compound, how does the AC50 read?
**A.** inconclusive: 23 µM

**Q.** With `CCCCCCCCCCCCCCCCN` as the compound, how does the outcome read?
**A.** inactive

**Q.** For `C[N+](C)(C)CCOC(N)=O`, which AC50 is on record?
**A.** inconclusive: 23 µM

**Q.** For `C=Cc1ccc(S(=O)(=O)O)cc1`, which AC50 is on record?
**A.** active: 46.1 µM

**Q.** Which AC50 does the source give for `O=C1c2ccccc2C(=O)C1c1ccc(Br)cc1` here?
**A.** inconclusive: 23 µM

**Q.** With `NC[C@@H]1CC[C@@H](N)[C@@H](O[C@H]2[C@H](O)[C@@H](O[C@H]3O[C@H](CO)[C@@H](O)[C@H](N)[C@H]3O)[C@H](N)C[C@@H]2N)O1` as the compound, how does the AC50 read?
**A.** inconclusive: 23 µM

**Q.** Which AC50 does the source give for `CC(C)Cc1ccc([C@@H](C)C(=O)NS(C)(=O)=O)cc1` here?
**A.** inconclusive: 38.1 µM

**Q.** With `CO/N=C(\C(=O)N[C@@H]1C(=O)N2C(C(=O)O)=C(CSc3cnns3)CS[C@H]12)c1csc(N)n1` as the compound, how does the AC50 read?
**A.** inconclusive: 7.52 µM

**Q.** For `CC(=O)NO`, which outcome is on record?
**A.** inactive

**Q.** Which outcome does the source give for `CC(C)(C)NC[C@H](O)COc1ccccc1C1CCCC1` here?
**A.** inactive

**Q.** For `CN(C(=O)CO)c1c(I)c(C(=O)NCC(O)CO)c(I)c(C(=O)NCC(O)CO)c1I` (centres undefined), which outcome is on record?
**A.** inactive

**Q.** Which outcome does the source give for `CO/N=C(\C(=O)N[C@@H]1C(=O)N2C(C(=O)O)=C(COC(C)=O)CS[C@H]12)c1csc(N)n1` (stereo in doubt) here?
**A.** inactive

**Q.** With `Cc1ccc(N=Nc2c(O)c(C(=O)O)cc3ccccc23)c(S(=O)(=O)O)c1` as the compound, how does the outcome read?
**A.** inactive

**Q.** For `CC(C)(C)OC(=O)c1ccccc1C(=O)O`, which AC50 is on record?
**A.** inconclusive: 46.1 µM
